No constants are given. Whether binding was seen depends on the method and setting. Binding seen in cells or lysates may run through a third protein. Some entries that bind do so weakly or less than the wild type.

The target of assay [1] is wild-type human APP overexpressed in N2a cells (human) (UniProt P05067). Kind of assay: co-IP; lysates of N2a cells overexpressing APPwt and APPL1wt, treated with MiTMAB (dynamin I and II inhibitor) to block endocytosis; IP with C1/6.1 or APPL1 antibody, immunoblot.
Assay [2] deals with mutant APP M596V (APPmv), β-cleavage-incompetent (human) (UniProt P05067). Briefly: co-IP; lysates of transfected HEK293 cells overexpressing APP (APPwt, APPmv or APP_(AENATA)) and APPL1 (wt or ΔPTB); IP with antibodies against APPL1 or against APP (C1/6.1 or 6E10), immunoblot; 10% of total lysate as input.
The target in assay [3] is T1, APPL1 (adaptor protein containing pleckstrin homology domain, phosphotyrosine binding domain and leucine zipper motif), wild type (UniProt Q9UKG1).
T1 sequence: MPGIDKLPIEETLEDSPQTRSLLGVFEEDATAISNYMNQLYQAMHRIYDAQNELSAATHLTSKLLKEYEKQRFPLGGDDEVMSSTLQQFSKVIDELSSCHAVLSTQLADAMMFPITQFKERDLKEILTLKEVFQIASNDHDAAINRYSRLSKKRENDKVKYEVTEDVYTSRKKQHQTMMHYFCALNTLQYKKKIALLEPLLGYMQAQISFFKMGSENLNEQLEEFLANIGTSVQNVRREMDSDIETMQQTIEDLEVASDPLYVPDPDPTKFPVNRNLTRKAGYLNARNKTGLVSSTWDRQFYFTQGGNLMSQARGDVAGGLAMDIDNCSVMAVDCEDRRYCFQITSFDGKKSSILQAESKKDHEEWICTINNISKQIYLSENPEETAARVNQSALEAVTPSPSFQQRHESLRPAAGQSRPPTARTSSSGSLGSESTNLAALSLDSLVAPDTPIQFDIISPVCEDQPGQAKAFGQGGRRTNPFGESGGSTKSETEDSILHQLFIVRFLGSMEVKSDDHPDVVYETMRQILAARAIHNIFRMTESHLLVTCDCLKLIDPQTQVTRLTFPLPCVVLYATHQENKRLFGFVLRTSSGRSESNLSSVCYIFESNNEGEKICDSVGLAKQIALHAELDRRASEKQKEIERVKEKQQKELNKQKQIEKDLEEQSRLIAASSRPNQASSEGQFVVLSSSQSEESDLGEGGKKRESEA
The description is as above.

B1: FE65 in N2a cells (protein, UniProt Q9QXJ1 1-710)
chain: MSVPSSLSQSAINANSHGGPALSFPLPLHAAHNQLLNAKLQATAVVPKDLRSAMGEGSVPEPGPANAKWLKEGQNQLRRAATAHRDQNRNVTLTLAEEASQEAETAPLGPKGLMHLYSELELSAHNAANRGLHGSALIINTQEQGPDEGEEKAAGEAEEDDEDEEEEEEEEDLSSPPGLPEPLENVEVPSGPQALTDGPREHSKSASLLFGMRNSAASDEDSSWATLSQGSPSYGSPEDTDSFWNPNAFETDSDLPAGWMRVQDTSGTYYWHIPTGTTQWEPPGRASPSQGSSPQEESQLTWTGFAHQEGFEEGEFWKDEPSEEAPMELGLKDPEEATLSFPAQSLSPEPVPQEEEKLSQRNANPGIKCFAVRSLGWVEMTEEELAPGRSSVAVNNCIRQLSYHKNNLHDPMAGGWGEGKDLLLQLEDETLKLVEPQNQTLLHAQPIVSIRVWGVGRDSGSNRDFAYVARDKLTQMLKCHVFRCEAPAKNIATSLHEICSKIMSERRNARCLVNGLSLDHSKLVDVPFQVEFPAPKNELVQKFQVYYLGNVPVAKPVGVDVINGALESVLSSSSREQWTPSHVSVAPATLTILHQQTEAVLGECRVRFLSFLAVGRDVHTFAFIMAAGPASFCCHMFWCEPNAASLSEAVQAACMLRYQKCLDARSQTSTSCLPAPPAESVARRVGWTVRRGVQSLWGSLKPKRLGSQTP
As for B1, the binding entry in assay [1] is “binds”.

B2: APPL1 (adaptor protein containing pleckstrin homology domain, phosphotyrosine binding domain and leucine zipper motif), wild type (protein, UniProt Q9UKG1 1-709)
chain: MPGIDKLPIEETLEDSPQTRSLLGVFEEDATAISNYMNQLYQAMHRIYDAQNELSAATHLTSKLLKEYEKQRFPLGGDDEVMSSTLQQFSKVIDELSSCHAVLSTQLADAMMFPITQFKERDLKEILTLKEVFQIASNDHDAAINRYSRLSKKRENDKVKYEVTEDVYTSRKKQHQTMMHYFCALNTLQYKKKIALLEPLLGYMQAQISFFKMGSENLNEQLEEFLANIGTSVQNVRREMDSDIETMQQTIEDLEVASDPLYVPDPDPTKFPVNRNLTRKAGYLNARNKTGLVSSTWDRQFYFTQGGNLMSQARGDVAGGLAMDIDNCSVMAVDCEDRRYCFQITSFDGKKSSILQAESKKDHEEWICTINNISKQIYLSENPEETAARVNQSALEAVTPSPSFQQRHESLRPAAGQSRPPTARTSSSGSLGSESTNLAALSLDSLVAPDTPIQFDIISPVCEDQPGQAKAFGQGGRRTNPFGESGGSTKSETEDSILHQLFIVRFLGSMEVKSDDHPDVVYETMRQILAARAIHNIFRMTESHLLVTCDCLKLIDPQTQVTRLTFPLPCVVLYATHQENKRLFGFVLRTSSGRSESNLSSVCYIFESNNEGEKICDSVGLAKQIALHAELDRRASEKQKEIERVKEKQQKELNKQKQIEKDLEEQSRLIAASSRPNQASSEGQFVVLSSSQSEESDLGEGGKKRESEA
For B2, in assay [2], the binding entry is listed as “no binding”.

B3: FE65, an adaptor protein containing the PTB domain (protein, UniProt O00213 1-710)
chain: MSVPSSLSQSAINANSHGGPALSLPLPLHAAHNQLLNAKLQATAVGPKDLRSAMGEGGGPEPGPANAKWLKEGQNQLRRAATAHRDQNRNVTLTLAEEASQEPEMAPLGPKGLIHLYSELELSAHNAANRGLRGPGLIISTQEQGPDEGEEKAAGEAEEEEEDDDDEEEEEDLSSPPGLPEPLESVEAPPRPQALTDGPREHSKSASLLFGMRNSAASDEDSSWATLSQGSPSYGSPEDTDSFWNPNAFETDSDLPAGWMRVQDTSGTYYWHIPTGTTQWEPPGRASPSQGSSPQEESQLTWTGFAHGEGFEDGEFWKDEPSDEAPMELGLKEPEEGTLTFPAQSLSPEPLPQEEEKLPPRNTNPGIKCFAVRSLGWVEMTEEELAPGRSSVAVNNCIRQLSYHKNNLHDPMSGGWGEGKDLLLQLEDETLKLVEPQSQALLHAQPIISIRVWGVGRDSGRERDFAYVARDKLTQMLKCHVFRCEAPAKNIATSLHEICSKIMAERRNARCLVNGLSLDHSKLVDVPFQVEFPAPKNELVQKFQVYYLGNVPVAKPVGVDVINGALESVLSSSSREQWTPSHVSVAPATLTILHQQTEAVLGECRVRFLSFLAVGRDVHTFAFIMAAGPASFCCHMFWCEPNAASLSEAVQAACMLRYQKCLDARSQASTSCLPAPPAESVARRVGWTVRRGVQSLWGSLKPKRLGAHTP
As to B3, the binding entry in assay [3] is given as “no binding”.

(Values after article PMC4721948.)
